US20030232013A1 (priority 2002, published 2003)

Assay: general procedure: Fmoc solid-phase peptide synthesis; Fmoc-Phe-Wang resin; HBTU
Details: for oxidative folding yield: oxidative folding step

Substance | isolated yield (whole synthesis, overall, starting from resin, scale of the general procedure 25 μmol) | oxidative folding yield
DOTA-6-Ahx-Phe^19-STh | 1.5% | 
DOTA-[Cys(Acm)^7,15, Cys(tBu)^10,18]-Phe^19-STh |  | 29%
DOTA-[Cys(tBu)^10,18]-Phe^19-STh |  | 62%
